In paper PMC12140386, “Diallyl Trisulfide From Garlic Regulates RAB18 Phase Separation to Inhibit Lipophagy and Induce Cuproptosis in Hepatic Stellate Cells for Antifibrotic Effects” (Advanced Science, 2025) one finds binding data, which are given here for four molecules.

By UniProt entry, the sequences of proteins in these tests, tags left out.
UniProt Q9NP72: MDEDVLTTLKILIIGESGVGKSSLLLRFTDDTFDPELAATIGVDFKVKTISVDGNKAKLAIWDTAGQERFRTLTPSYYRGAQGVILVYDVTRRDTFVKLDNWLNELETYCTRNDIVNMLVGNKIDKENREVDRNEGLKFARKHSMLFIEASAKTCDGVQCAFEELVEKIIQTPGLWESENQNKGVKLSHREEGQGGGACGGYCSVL

Results are given in words; binding and its absence hold for the method and conditions named. For some of these results: Binding seen in cells or lysates may run through a third protein. Some binding calls cover weakened binding; strength is not graded here.

Assay [1] concerns the target T1, Carnitine palmitoyltransferase 1A (CPT1A) (human (endogenous in LX2)) (UniProt P50416).
T1 sequence: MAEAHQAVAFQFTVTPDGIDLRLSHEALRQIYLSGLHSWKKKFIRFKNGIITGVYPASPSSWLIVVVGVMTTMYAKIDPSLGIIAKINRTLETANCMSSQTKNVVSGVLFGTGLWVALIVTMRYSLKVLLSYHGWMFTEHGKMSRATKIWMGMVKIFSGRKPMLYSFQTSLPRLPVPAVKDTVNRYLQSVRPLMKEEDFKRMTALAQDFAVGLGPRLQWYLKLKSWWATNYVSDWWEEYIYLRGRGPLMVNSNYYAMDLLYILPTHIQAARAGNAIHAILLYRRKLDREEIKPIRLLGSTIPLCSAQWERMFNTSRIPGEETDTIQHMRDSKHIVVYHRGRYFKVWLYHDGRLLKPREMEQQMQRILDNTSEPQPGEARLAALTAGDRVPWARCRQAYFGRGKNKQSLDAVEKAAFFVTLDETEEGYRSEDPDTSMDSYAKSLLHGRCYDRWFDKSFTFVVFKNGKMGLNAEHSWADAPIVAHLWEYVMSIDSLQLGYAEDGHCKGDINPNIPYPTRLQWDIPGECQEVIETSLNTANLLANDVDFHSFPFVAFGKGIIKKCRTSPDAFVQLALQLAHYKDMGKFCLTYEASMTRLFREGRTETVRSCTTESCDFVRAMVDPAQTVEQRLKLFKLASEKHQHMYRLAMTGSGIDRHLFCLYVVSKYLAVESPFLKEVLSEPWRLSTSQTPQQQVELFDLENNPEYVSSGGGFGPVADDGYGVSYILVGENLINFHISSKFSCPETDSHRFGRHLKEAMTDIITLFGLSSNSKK
Nature of the assay: co-IP; endogenous proteins in LX2 cell lysate; antibody to the target protein, Protein A/G beads, SDS-PAGE and Western blot; cells treated with DATs (10 µM, 24 h), with CPT1A siRNA or negative control siRNA. (In general: Immunoblotting shows a protein as a band on a membrane.)

For assay [2], the target named is Dihydrolipoamide Acetyltransferase (DLAT) (human (endogenous in LX2)) (UniProt P10515). Nature of the assay: native gel or EMSA; nondenaturing gel electrophoresis and immunoblot of DLAT oligomers in LX2 lysate; cells treated with DATs (0–10 µM, 24 h), also Elesclomol-Cu, TTM, GSH, DEM, rapamycin, CQ, 3-MA or siRNAs.
The target of assay [3] is DLAT (mouse liver) (mouse (endogenous in liver tissue)) (UniProt Q8BMF4). As to the kind of experiment: immunoblotting of oligomerized protein; immunoblot of oligomerized DLAT in liver tissue of CCl4/BDL mouse fibrosis models (Vehicle, RAB18-KD, DATs) and in primary mouse HSCs.
Assay [4] concerns the target T2, dihydrolipoamide dehydrogenase (DLD) (human (endogenous in LX2)), P09622.
T2 chain: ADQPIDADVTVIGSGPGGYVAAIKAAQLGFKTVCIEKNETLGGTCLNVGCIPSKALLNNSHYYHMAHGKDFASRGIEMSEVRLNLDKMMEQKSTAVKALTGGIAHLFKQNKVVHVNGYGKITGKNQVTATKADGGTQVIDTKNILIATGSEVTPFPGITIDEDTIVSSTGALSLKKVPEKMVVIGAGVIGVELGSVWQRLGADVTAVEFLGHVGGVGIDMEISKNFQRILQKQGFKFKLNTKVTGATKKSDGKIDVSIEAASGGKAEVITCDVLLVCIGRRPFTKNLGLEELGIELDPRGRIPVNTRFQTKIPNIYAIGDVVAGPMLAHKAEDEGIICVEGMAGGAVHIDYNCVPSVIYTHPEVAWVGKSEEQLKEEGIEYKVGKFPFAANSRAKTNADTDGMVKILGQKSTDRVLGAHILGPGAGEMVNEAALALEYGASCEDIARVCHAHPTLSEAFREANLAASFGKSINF
Nature of the assay: immunoblotting of oligomerized protein; immunoblot of oligomerized DLD in LX2 lysate; cells treated with DATs (10 µM, 24 h), with or without transfection of FLAG-tagged DLD-320R. The settings on record: remark: other sources report otherwise.

As for “Ras‐related protein Rab‐18 (RAB18) (from UniProt Q9NP72 1-206)”, the binding entry in assay [1] is reported as “binds”.

B1: Dihydrolipoamide Acetyltransferase (DLAT) (enzyme, UniProt P10515 87-647)
chain: SLPPHQKVPLPSLSPTMQAGTIARWEKKEGDKINEGDLIAEVETDKATVGFESLEECYMAKILVAEGTRDVPIGAIICITVGKPEDIEAFKNYTLDSSAAPTPQAAPAPTPAATASPPTPSAQAPGSSYPPHMQVLLPALSPTMTMGTVQRWEKKVGEKLSEGDLLAEIETDKATIGFEVQEEGYLAKILVPEGTRDVPLGTPLCIIVEKEADISAFADYRPTEVTDLKPQVPPPTPPPVAAVPPTPQPLAPTPSAPCPATPAGPKGRVFVSPLAKKLAVEKGIDLTQVKGTGPDGRITKKDIDSFVPSKVAPAPAAVVPPTGPGMAPVPTGVFTDIPISNIRRVIAQRLMQSKQTIPHYYLSIDVNMGEVLLVRKELNKILEGRSKISVNDFIIKASALACLKVPEANSSWMDTVIRQNHVVDVSVAVSTPAGLITPIVFNAHIKGVETIANDVVSLATKAREGKLQPHEFQGGTFTISNLGMFGIKNFSAIINPPQACILAIGASEDKLVPADNEKGFDVASMMSVTLSCDHRVVDGAVGAQWLAEFRKYLEKPITMLL
As to B1, in assay [2], the binding entry is reported as “binds”.

B2: DLAT (mouse liver) (enzyme, UniProt Q8BMF4 86-642)
chain: SLPPHQKVPLPSLSPTMQAGTIARWEKKEGEKISEGDLIAEVETDKATVGFESLEECYMAKILVPEGTRDVPVGSIICITVEKPQDIEAFKNYTLDLAAAAAPQAAPAAAPAPAAAPAAPSASAPGSSYPTHMQIVLPALSPTMTMGTVQRWEKKVGEKLSEGDLLAEIETDKATIGFEVQEEGYLAKILVPEGTRDVPLGAPLCIIVEKQEDIAAFADYRPTEVTSLKPQAAPPAPPPVAAVPPTPQPVAPTPSAAPAGPKGRVFVSPLAKKLAAEKGIDLTQVKGTGPEGRIIKKDIDSFVPSKAAPAAAAAMAPPGPRVAPAPAGVFTDIPISNIRRVIAQRLMQSKQTIPHYYLSVDVNMGEVLLVRKELNKMLEGKGKISVNDFIIKASALACLKVPEANSSWMDTVIRQNHVVDVSVAVSTPAGLITPIVFNAHIKGLETIASDVVSLASKAREGKLQPHEFQGGTFTISNLGMFGIKNFSAIINPPQACILAIGASEDKLIPADNEKGFDVASVMSVTLSCDHRVVDGAVGAQWLAEFKKYLEKPITMLL
With B2, in assay [3], the binding result is “binds”.

B3: dihydrolipoamide dehydrogenase (DLD), P09622 36-509 (enzyme)
chain: T2 chain
For the molecule B3, in assay [4], the binding entry is “binds”.
